{"sequences": {"note": "Protein sequences, listed by entry. Tags and fused reporters are not part of them.", "UniProt P35414": "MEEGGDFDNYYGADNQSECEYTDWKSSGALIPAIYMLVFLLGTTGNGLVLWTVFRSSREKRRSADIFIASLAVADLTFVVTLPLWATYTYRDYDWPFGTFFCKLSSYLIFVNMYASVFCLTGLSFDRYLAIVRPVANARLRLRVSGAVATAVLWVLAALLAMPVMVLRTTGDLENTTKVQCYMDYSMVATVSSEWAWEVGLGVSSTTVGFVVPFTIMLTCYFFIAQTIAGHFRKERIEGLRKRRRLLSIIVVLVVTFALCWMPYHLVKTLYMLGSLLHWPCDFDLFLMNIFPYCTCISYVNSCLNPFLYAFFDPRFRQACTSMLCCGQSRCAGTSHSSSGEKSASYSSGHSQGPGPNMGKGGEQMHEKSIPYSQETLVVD"}, "source": "patent US7947280B2", "about": "(priority 2003, dated 2011)", "molecular_target": "APJ receptor tagged with hemagluttinin (HA) peptide (UniProt P35414)", "assay": "anti-HA immunoblot after anti-GFP immunoprecipitation, transfected HEK-293 cells", "note": "These are yes or no findings as the source states them, for the method shown. Some results given as binding are weak or reduced against the parent protein; the word gives no strength."}
{"substance": "APJ receptor tagged with hemagluttinin (HA) peptide (from UniProt P35414 1-380)", "values": [{"measurement": "binding", "value": "binds"}]}
